These are yes or no findings as the source states them, for the method shown. Some binding calls cover weakened binding; strength is not graded here.

For test [1], the target named is T1, NFκB p65 (murine (cell line J774)), Q04207.
T1 chain: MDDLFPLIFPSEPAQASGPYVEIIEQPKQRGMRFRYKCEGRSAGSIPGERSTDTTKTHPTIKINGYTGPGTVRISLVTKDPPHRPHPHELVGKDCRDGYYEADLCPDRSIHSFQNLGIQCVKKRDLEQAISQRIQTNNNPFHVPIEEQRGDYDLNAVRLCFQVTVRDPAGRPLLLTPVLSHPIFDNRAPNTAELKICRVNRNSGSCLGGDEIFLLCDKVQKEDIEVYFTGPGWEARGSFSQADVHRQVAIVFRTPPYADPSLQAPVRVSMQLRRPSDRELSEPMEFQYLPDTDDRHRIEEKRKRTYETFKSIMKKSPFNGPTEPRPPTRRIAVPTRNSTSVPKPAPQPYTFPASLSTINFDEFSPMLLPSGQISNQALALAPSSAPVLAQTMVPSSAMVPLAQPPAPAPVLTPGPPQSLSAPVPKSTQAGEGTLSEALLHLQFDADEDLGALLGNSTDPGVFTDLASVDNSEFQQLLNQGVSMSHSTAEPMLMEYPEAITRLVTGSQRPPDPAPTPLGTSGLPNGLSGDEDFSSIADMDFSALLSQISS
Nature of the test: EMSA supershift, J774 nuclear extracts, labelled NFκB site probe. To be noted: remark: other sources report otherwise.

Test [2] concerns the target T1, NFκB p65 (murine (cell line J774)), …. Nature of the test: EMSA supershift. To be noted: remark: other sources report otherwise.

B1: NFκB p50, P25799 1-431 (protein, murine (cell line J774), UniProt P25799 1-431, looked up)
chain: MADDDPYGTGQMFHLNTALTHSIFNAELYSPEIPLSTDGPYLQILEQPKQRGFRFRYVCEGPSHGGLPGASSEKNKKSYPQVKICNYVGPAKVIVQLVTNGKNIHLHAHSLVGKHCEDGVCTVTAGPKDMVVGFANLGILHVTKKKVFETLEARMTEACIRGYNPGLLVHSDLAYLQAEGGGDRQLTDREKEIIRQAAVQQTKEMDLSVVRLMFTAFLPDSTGSFTRRLEPVVSDAIYDSKAPNASNLKIVRMDRTAGCVTGGEEIYLLCDKVQKDDIQIRFYEEEENGGVWEGFGDFSPTDVHRQFAIVFKTPKYKDVNITKPASVFVQLRRKSDLETSEPKPFLYYPEIKDKEEVQRKRQKLMPNFSDSFGGGSGAGAGGGGMFGSGGGGGSTGSPGPGYGYSNYGFPPYGGITFHPGVTKSNAGVTHG
In the case of B1, the binding result in test [1] and in test [2] was “binds” throughout.

The record behind these values is patent US7935675.
